Measurements as given in PubChem BioAssay AID504444 (National Center for Advancing Translational Sciences (NCATS), 2011).
Values joined by “and” are separate entries in the source; they are usually repeats but may differ in a detail not shown here. Equal values may be shown once. Out of some 360,000 compounds screened, about 7,500 (2.1%) were called active. Inconclusive results, whose numbers are uncertain, are shown with a selection of clear calls. Calls follow the shape of the dose curve; as a rule, active = well fitted inhibition curve with a large enough effect; inconclusive = small, poorly fitted or top-dose-only effect, or effect the other way; inactive = flat fitted curve, though single readings scatter. Where the call is inconclusive, the potency comes from a doubtful curve fit.

Assay: Nrf2 qHTS screen for inhibitors; also: nearly all actives have a fitted effect of over 60% in size
Details: A549 ARE-Fluc reporter, luciferase luminescence, 18-24 h; activity change, negative = inhibition: at 46 µM (top of the series)
How it was run: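 A549 ARE_Fluc cells (5000/well, 5% FBS OPTI-MEM) pre-incubated 2 h, then treated with compounds 18-24 h at 37C/5% CO2 in concentration-response. CellTiter-Fluor viability read first; BugLite luciferase luminescence after 15 min at room temperature gives Nrf2 activity.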
% is scaled to controls: 0 for no effect and ±100 for the full control effect; potency is read from the fitted curve at half-maximal effect.

Structure (SMILES) | Potency | activity change, negative = inhibition
NS(=O)(=O)c1cnccc1Nc1cccc(Br)c1 | inconclusive: 5.8 µM [falling, full curve, poor fit] | 
c1csc(CCNc2ncnc3sc4c(c23)CCC4)c1 | inconclusive: 2.91 µM [falling, full curve, poor fit] | 
COc1cccc(-c2nc(NCC3CCCO3)c3ccccc3n2)c1O (stereo unspecified) | inconclusive: 29.1 µM [falling, single point] | 
CCCC1=Nc2cc(C(=O)NC3CCCC3)ccc2Sc2ccc(C)cc21 | inconclusive: 2.06 µM [activator, partial curve, poor fit] | 
O=c1oc2ccccc2cc1-c1nc2c(s1)CCc1ccccc1-2 | inconclusive: 29.1 µM [activator, single point] and inconclusive: 20.6 µM [activator, partial curve, poor fit] | 
CCOC(=O)CC(NC(=O)Cn1nnc(-c2ccc(C(F)(F)F)cc2)n1)c1ccc(OC)cc1 (stereo unspecified) | inconclusive: 8.2 µM [falling, partial curve] | 
Cc1ccc(-c2ccc(C(=O)NCc3ccccc3)o2)c2ccccc12 |  | inactive: -19.4%
CCCn1c(=O)sc2cc(NC(=O)COc3ccc(Cl)cc3)ccc21 | inconclusive: 29.1 µM [falling, single point] | 
CCN(CC)CC(C)CNC(=O)c1cc(-c2ccc(Br)s2)nc2ccccc12 (stereo unspecified) |  | inactive: 3.27% [at 9.27 µM]
O=Cc1cn(CC(=O)Nc2ccc3c(c2)OCO3)c2ccccc12 |  | inactive: 2.36%
COc1cccc(CN(C(=O)c2oc3cc(C)ccc3c2C)C2CCS(=O)(=O)C2)c1 (stereo unspecified) | inconclusive: 14.6 µM [falling, partial curve] | 
COc1cccc2c1OCC/C2=N\NC(=O)C(C)Oc1ccc([N+](=O)[O-])cc1 (stereo unspecified) | inconclusive: 18.4 µM [falling, partial curve, poor fit] | 
Cc1occc1-c1nnc(SCC(=O)Nc2nc3ccccc3s2)o1 | inconclusive: 25.9 µM [falling, partial curve, poor fit] | 
COc1ccc(CN2CCCCC2C)cc1OC (stereo unspecified) | inconclusive: 36.6 µM [falling, partial curve, poor fit] | 
CCOC(=O)c1ccc(NS(=O)(=O)c2ccc3c(c2)n(C)c(=O)n3C)cc1 | active: 20.6 µM | 
O=C(NCc1ccc(Cl)cc1)c1cc([N+](=O)[O-])ccc1Cl | inconclusive: 0.058 µM [falling, partial curve, poor fit] | 
O=C(CSC1=Nc2ccccc2C2=NC(CC(=O)NCc3ccco3)C(=O)N12)NCC1CCCO1 (stereo unspecified) | inconclusive: 6.51 µM [falling, single point] | 
O=C(COc1cccnc1[N+](=O)[O-])Nc1ccc(F)cc1 | inconclusive: 6.51 µM [falling, single point] | 
CCN(CC)c1ccc(N=Cc2ccccc2[N+](=O)[O-])cc1 | inconclusive: 23.1 µM [activator, single point] | 
COc1cc(CCC(=O)N2CCN(c3ncccn3)CC2)cc(OC)c1OC | inconclusive: 0.82 µM [falling, partial curve, poor fit] | 
Cc1cccc(NC(=O)C2CCN(S(=O)(=O)c3ccc(F)cc3)CC2)c1C |  | inactive: -11.3%

Single entries from the list.
Value for `c1csc(CCNc2ncnc3sc4c(c23)CCC4)c1` under Potency: inconclusive: 2.91 µM [falling, full curve, poor fit]
Value for `CCOC(=O)c1ccc(NS(=O)(=O)c2ccc3c(c2)n(C)c(=O)n3C)cc1` under Potency: active: 20.6 µM

Remaining list, next part

Structure (SMILES) | Potency | activity change, negative = inhibition
CC12CN3CCN(CC(C3)/C1=N\NC(=O)c1ccccc1N)C2 | inconclusive: 10.3 µM [activator, partial curve] | 
O=C(/C=C/c1ccc(O)c(O)c1)NC(=O)c1ccccc1O | inconclusive: 29.1 µM [falling, single point] | 
CC(C)(C)OC(=O)NCCCCCNC(=O)c1nc[nH]c1C(=O)NCC(=O)OCc1ccccc1 |  | inactive: -28.3%
CCC(NC(=O)c1cc(COc2ccc(F)cc2Cl)on1)c1ccncc1 (stereo unspecified) | active: 16.4 µM | 
CN1CCc2nc(SCc3ccc(C(C)(C)C)cc3)c(C#N)cc2C1 | inconclusive: 29.1 µM [falling, partial curve, poor fit] | 
COc1cccc(CNC(=O)[C@H](CC(C)C)NC(=O)N2CCn3c2nc2ccccc23)c1 | inconclusive: 6.51 µM [activator, single point] | 
CCOC(=O)c1cnc(SCC(=O)Nc2sc(C)c(C)c2C#N)nc1N | active: 9.2 µM | 
O=S(=O)(NCc1ccc(F)cc1)c1ccc(-c2cnc(C3CC3)o2)cc1 | inconclusive: 29.1 µM [falling, single point] | 
O=C(CSc1nnc(NC2CCCCC2)s1)NCc1ccco1 | inconclusive: 4.11 µM [activator, partial curve, poor fit] | 
c1cnc2c(OCc3cn4cccnc4n3)cccc2c1 | inconclusive: 2.59 µM [activator, partial curve, poor fit] | 
COc1ccccc1N1CC(C)(C)C(=O)N(C(=O)c2ccc(Cl)cc2)C1=S | inconclusive: 29.1 µM [falling, single point] | 
COc1ccc(C(=O)Nc2ccc3[nH]ccc3c2)cc1OC |  | inactive: 25.8%
O=C(Cn1cnc2ccccc2c1=O)c1ccc(Cl)cc1 | inconclusive: 25.9 µM [activator, single point] | 
O=c1c2c([nH]c3ccccc13)CCCCCC2 | inconclusive: 14.6 µM [falling, partial curve, poor fit] | 
O=C(Nc1cccc2nsnc12)c1cccs1 | inactive and inconclusive: 20.6 µM [activator, partial curve, poor fit] | 
CCOC(=O)/C(=C\c1cccnc1)C(=O)c1cc(C(C)=O)c(Nc2ccccc2)s1 | inconclusive: 29.1 µM [falling, single point] | 
O=S(=O)(c1cccc(F)c1)N1CCN(c2nc(-c3cccnc3)nc3ccccc23)CC1 | inconclusive: 18.4 µM [falling, single point] | 
N#C/C(=C\c1ccccc1C(F)(F)F)C(=O)Nc1ccccc1 |  | inactive: -12.5%
CCOc1ccccc1NC(=O)c1ccc(S(=O)(=O)N(C)c2ccccc2)cc1 | inconclusive: 32.6 µM [falling, partial curve, poor fit] | 
COCC(=O)N1CCC(n2nccc2NC(=O)CCOc2ccccc2)CC1 | inconclusive: 23.1 µM [falling, single point] | 
